PMC12382473, “Retinoid X receptor γ interacts with peroxisome proliferator-activated receptor-γ to promote browning during adipose tissue differentiation” (Adipocyte, 2025)
No constants are given. Whether binding was seen depends on the method and setting. In cells and extracts the contact can be indirect. These calls come from enrichment with a bait or labelling near it, and not all partners need be listed.

Amino acid sequences for entries named in this document (tags omitted).
UniProt P37231: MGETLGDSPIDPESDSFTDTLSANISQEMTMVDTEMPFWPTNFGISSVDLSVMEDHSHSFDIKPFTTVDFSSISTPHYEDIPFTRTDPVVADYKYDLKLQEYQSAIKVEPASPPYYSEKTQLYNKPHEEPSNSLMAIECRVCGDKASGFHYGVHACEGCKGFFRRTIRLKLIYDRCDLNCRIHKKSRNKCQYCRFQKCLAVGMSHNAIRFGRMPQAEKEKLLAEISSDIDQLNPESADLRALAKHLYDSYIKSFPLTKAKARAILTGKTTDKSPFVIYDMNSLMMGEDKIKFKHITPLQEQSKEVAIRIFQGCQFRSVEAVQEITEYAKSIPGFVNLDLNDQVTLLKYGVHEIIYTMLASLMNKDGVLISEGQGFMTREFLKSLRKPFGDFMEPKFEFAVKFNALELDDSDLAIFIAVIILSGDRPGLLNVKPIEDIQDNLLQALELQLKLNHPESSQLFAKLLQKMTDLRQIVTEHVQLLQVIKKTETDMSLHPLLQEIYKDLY
UniProt Q9Y2H1: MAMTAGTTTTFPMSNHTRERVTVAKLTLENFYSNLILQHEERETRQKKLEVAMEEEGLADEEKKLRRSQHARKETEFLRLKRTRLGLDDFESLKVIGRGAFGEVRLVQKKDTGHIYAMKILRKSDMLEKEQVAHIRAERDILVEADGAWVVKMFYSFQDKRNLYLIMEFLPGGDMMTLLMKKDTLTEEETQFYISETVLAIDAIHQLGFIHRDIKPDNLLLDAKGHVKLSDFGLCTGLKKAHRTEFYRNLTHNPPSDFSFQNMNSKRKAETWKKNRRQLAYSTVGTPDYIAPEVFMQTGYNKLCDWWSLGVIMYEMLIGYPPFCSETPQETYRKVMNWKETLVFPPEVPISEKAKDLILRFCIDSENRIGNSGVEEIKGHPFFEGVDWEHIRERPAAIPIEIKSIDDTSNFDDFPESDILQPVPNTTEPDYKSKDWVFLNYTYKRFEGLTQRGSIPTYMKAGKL
UniProt Q15208: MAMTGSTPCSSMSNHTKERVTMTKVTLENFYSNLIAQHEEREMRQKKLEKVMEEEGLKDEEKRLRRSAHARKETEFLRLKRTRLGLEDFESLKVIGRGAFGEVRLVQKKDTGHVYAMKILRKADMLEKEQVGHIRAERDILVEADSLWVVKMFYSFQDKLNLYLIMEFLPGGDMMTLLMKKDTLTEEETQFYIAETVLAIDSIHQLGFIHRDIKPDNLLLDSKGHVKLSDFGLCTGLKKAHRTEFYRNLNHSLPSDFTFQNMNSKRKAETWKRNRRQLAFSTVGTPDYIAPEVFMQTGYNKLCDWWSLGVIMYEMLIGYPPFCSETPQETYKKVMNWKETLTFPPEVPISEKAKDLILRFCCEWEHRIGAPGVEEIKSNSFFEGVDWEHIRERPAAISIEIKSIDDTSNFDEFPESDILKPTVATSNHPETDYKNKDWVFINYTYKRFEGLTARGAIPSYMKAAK

Target: Flag-PPARγ (peroxisome proliferator-activated receptor-γ), expressed by lentivirus in human preadipocytes (UniProt P37231)
Experiment: affinity purification with mass spectrometry; human preadipocytes (adipose SVCs) transduced with lentivirus for Flag-PPARγ or Flag-EGFP, treated with rosiglitazone (1 µM) and insulin (70 nM) for 24 h; lysate (50 mM Tris pH 7.5, 150 mM NaCl, 1% NP-40, 0.25% deoxycholate) on anti-Flag M2 magnetic beads overnight at 4°C; wash with 250 mM NaCl; elution with Flag peptide; LC-tandem mass spectrometry

## STK38-Like (STK38L), endogenous in human preadipocytes (from UniProt Q9Y2H1 1-464)
  binding: binds

## serine/threonine kinase 38 (STK38), endogenous in human preadipocytes (from UniProt Q15208 1-465)
  binding: binds
